Biological target: ACC1 (acetyl-coenzyme A carboxylase 1) (Homo sapiens, UniProt Q13085)
Assay: biochemical

IC50: ~20 µM
SMILES: Clc1ccc(CSC(Cn2ccnc2)c2ccc(Cl)cc2Cl)cc1 (stereo not shown) [SN, sulconazole]
